Data from the supplement of paper PMC8858631.
Values joined by “and” are separate entries in the source; they are usually repeats but may differ in a detail not shown here. Equal entries are not always repeated. Structures can show the parent of a compound that is named as a salt. The list shows a part of the results. Rule as the data show it: active = 0.5 or less and inactive = the rest. Single values are uncertain, as repeats are few or missing.

What follows are compounds tested on SK-MEL-28 (assay: EEF2K protein level normalised to actin (western blot) after treatment (ratio (EEF2K/Actin)); higher = more EEF2K protein remaining (less EEF2K suppression)). Details: 5 µM; 24 h.

| SMILES | EEF2K protein level normalised to actin |
| --- | --- |
| CNC(=O)[C@@H](NC(=O)[C@H](CC(C)C)[C@H](O)C(=O)NO)C(C)(C)C [Marimastat (BB-2516)] | inactive: 2.22 |
| O=c1[nH]c(=O)n([C@H]2C[C@H](O)[C@@H](CO)O2)cc1F [Floxuridine] | active: 0.23 |
| Cn1cnc2c(F)c(Nc3ccc(Br)cc3F)c(C(=O)NOCCO)cc21 | inactive: 2.57 |
| CS(=O)(=O)c1ccc(C(=O)Nc2ccc(Cl)c(-c3ccccn3)c2)c(Cl)c1 [Vismodegib (GDC-0449)] | inactive: 0.97 |
| Cc1ccc(Nc2nccc(N(C)c3ccc4c(C)n(C)nc4c3)n2)cc1S(N)(=O)=O | inactive: 0.75 |
| NC(=O)c1cccc2cn(-c3ccc([C@@H]4CCCNC4)cc3)nc12 [Niraparib (MK-4827)] | inactive: 0.65 |
| O=NN(CCCl)C(=O)NCCCl [Carmustine] | inactive: 1.2 |
| CN(N=O)C(=O)NC1C(O)OC(CO)C(O)C1O (stereo not given) [Streptozotocin (STZ)] | inactive: 1.13 |
| CN(C)C(=O)c1cc2cnc(Nc3ccc(N4CCNCC4)cn3)nc2n1C1CCCC1 [Ribociclib (LEE011)] | inactive: 1.85 |
| COc1cc2c3cc1Oc1c(OC)c(OC)cc4c1[C@@H](Cc1ccc(O)c(c1)Oc1ccc(cc1)C[C@@H]3N(C)CC2)N(C)CC4 [Berbamine (dihydrochloride)] | inactive: 0.96 |
| CC/C(=C(\c1ccccc1)c1ccc(OCCN(C)C)cc1)c1ccccc1 [Tamoxifen] | inactive: 1.78 |
| N#Cc1ccc(C2CCCc3cncn32)cc1 (stereo not given) [Fadrozole] | inactive: 0.72 |
| N[C@@H]1CN(c2c(F)cc3c(=O)c(C(=O)O)cn([C@@H]4C[C@@H]4F)c3c2Cl)CC12CC2 [Sitafloxacin Hydrate] | inactive: 1.31 |
| CC(=O)c1c(C)c2cnc(Nc3ccc(N4CCNCC4)cn3)nc2n(C2CCCC2)c1=O | inactive: 1.96 and inactive: 0.97 |
| Cc1c(-c2ccc(-c3ccccc3F)cc2)nc2ccc(F)cc2c1C(=O)O [Brequinar] | inactive: 0.95 |
| O=C(c1ccc(OCCN2CCCCC2)cc1)c1c(-c2ccc(O)cc2)sc2cc(O)ccc12 [Raloxifene] | inactive: 0.65 |
| COc1cc2/c(=N/c3ccc(Br)cc3F)nc[nH]c2cc1OCC1CCN(C)CC1 [Vandetanib (ZD6474)] | inactive: 1.67 |
| Cc1nc(Nc2ncc(C(=O)Nc3c(C)cccc3Cl)s2)cc(N2CCN(CCO)CC2)n1 [Dasatinib] | inactive: 1 |
| C=CC(=O)Nc1cc(Nc2nccc(-c3cn(C)c4ccccc34)n2)c(OC)cc1N(C)CCN(C)C [Osimertinib (AZD9291)] | inactive: 1.08 |
| Nc1nc(CC(=O)Nc2ccc(CCNC[C@H](O)c3ccccc3)cc2)cs1 [Mirabegron] | inactive: 1.21 |
| C=CC(=O)Nc1cc(Nc2nccc(-c3cn(C)c4ccccc34)n2)c(OC)cc1N(C)CCN(C)C [Osimertinib mesylate] | active: 0.32 |
| CC(=O)O[C@H]1CC[C@@]2(C)C(=CC[C@@H]3[C@@H]2CC[C@]2(C)C(c4cccnc4)=CC[C@@H]32)C1 [Abiraterone Acetate] | inactive: 1.93 |
| O=C(O)C1CSCN1 (stereo not given) [Timonacic] | inactive: 0.87 |
| CCC[C@@H]1C[C@@H](C(=O)N[C@@H]([C@H]2O[C@H](SC)[C@H](O)[C@@H](O)[C@H]2O)[C@@H](C)O)N(C)C1 [Lincomycin HCl] | inactive: 2.27 |
| O=C(c1ccc(F)c(F)c1Nc1ccc(I)cc1F)N1CC(O)([C@@H]2CCCCN2)C1 [Cobimetinib (GDC-0973, RG7420)] | inactive: 0.97 |
| COC(=O)N[C@H](C(=O)N1CCC[C@H]1c1ncc(-c2ccc(-c3ccc(-c4cnc([C@@H]5CCCN5C(=O)[C@@H](NC(=O)OC)C(C)C)[nH]4)cc3)cc2)[nH]1)C(C)C | inactive: 0.91 |
| CC/C(=C(/CC)c1ccc(O)cc1)c1ccc(O)cc1 [Diethylstilbestrol] | inactive: 0.67 |
| COc1cc2ncnc(Nc3ccc(F)c(Cl)c3)c2cc1OCCCN1CCOCC1 [Gefitinib (ZD1839)] | inactive: 0.74 |
| CNC(=O)c1c(C)oc2cc(Oc3ncnc4cc(OC)c(OC)cc34)ccc12 [Fruquintinib] | inactive: 0.77 |
| CCOc1cc2ncc(C#N)c(Nc3ccc(OCc4ccccn4)c(Cl)c3)c2cc1NC(=O)/C=C/CN(C)C [Neratinib (HKI-272)] | inactive: 1.77 |

Part of the list above, with each value named:
COc1cc2/c(=N/c3ccc(Br)cc3F)nc[nH]c2cc1OCC1CCN(C)CC1 [Vandetanib (ZD6474)]
  EEF2K protein level normalised to actin: inactive: 1.67
O=C(c1ccc(F)c(F)c1Nc1ccc(I)cc1F)N1CC(O)([C@@H]2CCCCN2)C1 [Cobimetinib (GDC-0973, RG7420)]
  EEF2K protein level normalised to actin: inactive: 0.97
